Assay results published in publication PMC10247366.
These are yes or no findings as the source states them, for the method shown. Some results given as binding are weak or reduced against the parent protein; the word gives no strength.

Chains of the proteins cited; added tags and fusions are not shown. Lines headed by an entry give the natural chain unless they say otherwise; changes in a name come on top.
UniProt Q9H6L5, whole entry: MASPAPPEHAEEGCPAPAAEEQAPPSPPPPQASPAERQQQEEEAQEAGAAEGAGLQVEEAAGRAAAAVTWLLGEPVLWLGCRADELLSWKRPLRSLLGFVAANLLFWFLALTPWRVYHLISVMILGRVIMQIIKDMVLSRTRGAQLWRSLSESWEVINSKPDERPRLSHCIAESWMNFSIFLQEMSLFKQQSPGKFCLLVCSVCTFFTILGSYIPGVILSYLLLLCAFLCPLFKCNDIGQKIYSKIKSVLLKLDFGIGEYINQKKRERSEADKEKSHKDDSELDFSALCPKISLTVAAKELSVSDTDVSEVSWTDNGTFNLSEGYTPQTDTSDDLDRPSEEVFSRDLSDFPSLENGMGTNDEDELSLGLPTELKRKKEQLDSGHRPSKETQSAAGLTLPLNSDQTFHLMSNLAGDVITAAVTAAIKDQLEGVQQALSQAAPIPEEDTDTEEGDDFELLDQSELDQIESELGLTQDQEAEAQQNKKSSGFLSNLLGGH

Assays:
HA–FAM134B WT [1] = target: HA–FAM134B WT (UniProt Q9H6L5); test: high-molecular-weight species on immunoblot; U2OS or HeLa cells stably expressing HA-FAM134B WT or the LIR mutant (doxycycline-inducible), DMSO or 200 nM BafA1 for 6 h; western blot
HA–FAM134B WT [2] = target: HA–FAM134B WT (UniProt Q9H6L5); test: high-molecular-weight (oligomeric, SDS-resistant) species on immunoblot; HA–FAM134B IP from HEK 293T lysate, SDS–PAGE, immunoblot, densitometry of the oligomers

With “HA–FAM134B WT (from UniProt Q9H6L5 1-497)” the binding (HA–FAM134B WT [1]) was “binds” and the binding (HA–FAM134B WT [2]) was “binds”.
